The exact form of at least one protein or probe is not confirmed. Results from cells or extracts need not show a direct contact. A negative result means that nothing was seen under these conditions. At least one verdict rests on a figure or table, not on a statement of the authors.
Target: EpCAM (epithelial cell adhesion molecule) on RB tumor cells, Y79 and WERI-Rb1 (UniProt P16422)
Experiment: flow cytometry
Conditions: 100 nM aptamer, PBS with 5 mM MgCl2, 0.1 mg/ml tRNA, 0.1 mg/ml salmon sperm DNA, on ice 1 h, pH not stated, protein on the cell surface

The chains behind the UniProt entries cited, without tags or fusion partners. Residues count along the entry.
UniProt P16422, 24-314: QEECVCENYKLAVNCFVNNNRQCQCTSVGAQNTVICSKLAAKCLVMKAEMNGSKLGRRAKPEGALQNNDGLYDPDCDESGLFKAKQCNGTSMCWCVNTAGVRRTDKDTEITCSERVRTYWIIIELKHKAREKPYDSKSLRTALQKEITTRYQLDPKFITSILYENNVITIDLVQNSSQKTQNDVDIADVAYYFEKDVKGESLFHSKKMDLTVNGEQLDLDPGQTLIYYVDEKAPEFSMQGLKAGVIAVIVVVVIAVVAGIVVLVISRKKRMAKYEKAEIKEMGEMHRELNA

Sequence	binding result (RB primary tumor cells (n=4), 5 mM MgCl2, 35% of cells bound, 2'-fluoro pyrimidines)	binding result (WERI-Rb1 cells, 5 mM MgCl2, 2'-fluoro pyrimidines)	binding result (Y79 cells, 5 mM MgCl2, 2'-fluoro pyrimidines)	binding result (RB primary tumor cells (n=4), 5 mM MgCl2, text: did not bind, legend: least binding, 2'-OMe pyrimidines)	binding result (WERI-Rb1 cells, 5 mM MgCl2, 2'-OMe pyrimidines)	binding result (Y79 cells, 5 mM MgCl2, 2'-OMe pyrimidines)
GCGACUGGUUACCCGGUCG [EpDT3-FI]	binds	binds	binds	–	–	–
GCGACUGGUUACCCGGUCG [Scr-EpDT3-FI]	–	–	–	no binding	no binding	no binding
